For the assay, the target named is T1, ETS1 (human (endogenous in KYSE30)) (UniProt P14921).
T1 sequence: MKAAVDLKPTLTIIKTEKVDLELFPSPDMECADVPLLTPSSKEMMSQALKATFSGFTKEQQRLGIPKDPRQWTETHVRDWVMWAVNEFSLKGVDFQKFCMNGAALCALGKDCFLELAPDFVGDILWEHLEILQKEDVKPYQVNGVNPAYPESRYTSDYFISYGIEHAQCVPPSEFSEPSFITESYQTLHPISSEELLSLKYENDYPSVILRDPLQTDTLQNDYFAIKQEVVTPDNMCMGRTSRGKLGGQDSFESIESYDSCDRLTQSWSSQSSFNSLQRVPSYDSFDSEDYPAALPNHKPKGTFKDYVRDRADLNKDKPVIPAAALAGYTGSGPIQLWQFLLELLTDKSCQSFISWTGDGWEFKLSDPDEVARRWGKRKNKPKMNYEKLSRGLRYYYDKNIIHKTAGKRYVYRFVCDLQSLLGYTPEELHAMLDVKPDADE
In words: co-IP; whole cell lysates of KYSE30 cells (NP40 lysis buffer), 800 ug lysate with 5 ug anti-ETS1 antibody or mouse IgG overnight at 4°C, Protein A/G agarose beads; HMGA1 detected by western blot. Background: A western blot detects proteins with antibodies after separation by electrophoresis.

The chains behind the UniProt entries cited, without tags or fusion partners.
UniProt P17096: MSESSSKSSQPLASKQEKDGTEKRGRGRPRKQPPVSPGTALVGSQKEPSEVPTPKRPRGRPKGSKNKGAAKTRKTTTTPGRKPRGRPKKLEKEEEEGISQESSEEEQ

These are yes or no findings as the source states them, for the method shown. Binding seen in cells or lysates may run through a third protein. Some entries that bind do so weakly or less than the wild type.

For HMGA1 (from UniProt P17096 1-107), the binding entry is “binds”.

The values above are taken from paper PMC11077367.
